# Reference: article PMC7876033
# Results are given in words; binding and its absence hold for the method and conditions named. Binding calls can cover weak binding; strength is not graded here. For some assays here: In cells and extracts the contact can be indirect.
# B1: IPMDH1:CVen210 (enzyme, UniProt Q9FMT1 38-409)
# chain: AAASPGKKRYNIALLPGDGIGPEVISVAKNVLQKAGSLEGLEFDFKEMPVGGAALDLVGVPLPEETFTAAKLSDAILLGAIGGYKWDKNEKHLRPEMALFYLRRDLKVFANLRPATVLPQLVDASTLKKEVAEGVDMMIVRELTGGIYFGEPRGITINENGEEVGVSTEIYAAHEIDRIARVAFETARKRRGKLCSVDKANVLDASILWRKRVTALASEYPDVELSHMYVDNAAMQLIRDPKQFDTIVTNNIFGDILSDEASMITGSIGMLPSASLGESGPGLFEPIHGSAPDIAGQDKANPLATILSAAMLLKYGLGEEKAAKRIEDAVVDALNKGFRTGDIYSPGNKLVGCKEMGEEVLKSVESKVPATV
# B2: IPMDH2:CVen210 (enzyme, UniProt P93832 34-405)
# chain: AVASPGKKRYTITLLPGDGIGPEVVSIAKNVLQQAGSLEGVEFNFREMPIGGAALDLVGVPLPEETISAAKESDAVLLGAIGGYKWDNNEKHLRPEKGLLQIRAALKVFANLRPATVLPQLVDASTLKREVAEGVDLMVVRELTGGIYFGEPRGIKTNENGEEVGFNTEVYAAHEIDRIARVAFETARKRRGKLCSVDKANVLEASILWRKRVTALASEYPDVELSHMYVDNAAMQLVRDPKQFDTIVTNNIFGDILSDEASMITGSIGMLPSASLSDSGPGLFEPIHGSAPDIAGQDKANPLATILSAAMLLKYGLGEEKAAKRIEDAVLVALNNGFRTGDIYSAGTKLVGCKEMGEEVLKSVDSQVPASV
# B3: IPMDH3:CVen210 (enzyme, UniProt Q9SA14 35-404)
# chain: AAASPVKKRYNITLLPGDGIGPEVISVAKNVLQKAGFLQGLEFDFQEMPFGGAALDLVGVPLPEETSTAAKQSDAILLGAIGGYKWDKNEKHLRPEMGLLNIRRDLNVFANLRPATVLPQLVDASTLKKEVAQGVDMMIVRELTGGIYFGEPRGITINENGEEVGFNTEIYAAHEIDRIARVAFETARKRRGKLCSVDKANVLDASILWRKRVTALASEYPDVELSHMYVDNAAMQLVRDPKQFDTIVTNNIFGDILSDEASMITGSIGMLPSASLGESGPGLFEPIHGSAPDIAGQDKANPLATILSAAMLLKYGLGEEKAAKMIEDAVVDALNKGFRTGDIYSPGNKLVGCKEMGEEVLKSVDSKVPV
# B4: isopropylmalate dehydrogenase 1 (IPMDH1) (enzyme, UniProt Q9FMT1 1-409)
# chain: MAAFLQTNISLNAIKIVPGKYSSLTDHQFRAPYRIRCAAASPGKKRYNIALLPGDGIGPEVISVAKNVLQKAGSLEGLEFDFKEMPVGGAALDLVGVPLPEETFTAAKLSDAILLGAIGGYKWDKNEKHLRPEMALFYLRRDLKVFANLRPATVLPQLVDASTLKKEVAEGVDMMIVRELTGGIYFGEPRGITINENGEEVGVSTEIYAAHEIDRIARVAFETARKRRGKLCSVDKANVLDASILWRKRVTALASEYPDVELSHMYVDNAAMQLIRDPKQFDTIVTNNIFGDILSDEASMITGSIGMLPSASLGESGPGLFEPIHGSAPDIAGQDKANPLATILSAAMLLKYGLGEEKAAKRIEDAVVDALNKGFRTGDIYSPGNKLVGCKEMGEEVLKSVESKVPATV
# B5: isopropylmalate dehydrogenase 2 (IPMDH2) (enzyme, UniProt P93832 1-405)
# chain: MAAALQTNIRTVKVPATFRAVSKQSLAPFRVRCAVASPGKKRYTITLLPGDGIGPEVVSIAKNVLQQAGSLEGVEFNFREMPIGGAALDLVGVPLPEETISAAKESDAVLLGAIGGYKWDNNEKHLRPEKGLLQIRAALKVFANLRPATVLPQLVDASTLKREVAEGVDLMVVRELTGGIYFGEPRGIKTNENGEEVGFNTEVYAAHEIDRIARVAFETARKRRGKLCSVDKANVLEASILWRKRVTALASEYPDVELSHMYVDNAAMQLVRDPKQFDTIVTNNIFGDILSDEASMITGSIGMLPSASLSDSGPGLFEPIHGSAPDIAGQDKANPLATILSAAMLLKYGLGEEKAAKRIEDAVLVALNNGFRTGDIYSAGTKLVGCKEMGEEVLKSVDSQVPASV
# B6: isopropylmalate dehydrogenase 3 (IPMDH3) (enzyme, UniProt Q9SA14 1-404)
# chain: MAAFLQTNIRLEIIPGRYSSLTDHKFRAPYRIRCAAASPVKKRYNITLLPGDGIGPEVISVAKNVLQKAGFLQGLEFDFQEMPFGGAALDLVGVPLPEETSTAAKQSDAILLGAIGGYKWDKNEKHLRPEMGLLNIRRDLNVFANLRPATVLPQLVDASTLKKEVAQGVDMMIVRELTGGIYFGEPRGITINENGEEVGFNTEIYAAHEIDRIARVAFETARKRRGKLCSVDKANVLDASILWRKRVTALASEYPDVELSHMYVDNAAMQLVRDPKQFDTIVTNNIFGDILSDEASMITGSIGMLPSASLGESGPGLFEPIHGSAPDIAGQDKANPLATILSAAMLLKYGLGEEKAAKMIEDAVVDALNKGFRTGDIYSPGNKLVGCKEMGEEVLKSVDSKVPV
# B7: isopropylmalate isomerase (IPMI) small subunit LeuD1 (protein, UniProt Q9ZW84 1-256)
# chain: MAYSLPTFPQALPCSSTKTSSSLATFRSPFLRFNGSTSLIPSSISITSRGTSSPTIIPRAAASESDSNEALANTTFHGLCYVLKDNIDTDQIIPAGAACTFPSNQQERDEIAAHALSGLPDFHKTRFIEPGENRSKYSIIIGGENFGCGSSREHAPVCLGAAGAKAIVAESYARIFFRNSVATGEVFPLESEVRVCEECKTGDTVTIELSDSGGLLTNHTTGKNYKLKSIGDAGPVIDAGGIFAYARMMGMIPSLA
# B8: methylthioalkylmalate synthase 3 (MAM3) (enzyme, UniProt Q9FN52 1-503)
# chain: MASLLLTSSSMITTSCRSMVLRSGLPIGSSFPSLRLTRPYDKATLFVSCCSAESKKVATSATDLKPIMERRPEYIPNKLPHKNYVRVLDTTLRDGEQSPGAALTPPQKLEIARQLAKLRVDIMEVGFPVSSEEEFEAIKTIAKTVGNEVDEETGYVPVICGIARCKKRDIEATWEALKYAKRPRVMLFTSTSEIHMKYKLKKTKEEVIEMAVNSVKYAKSLGFKDIQFGCEDGGRTEKDFICKILGESIKAGATTVGFADTVGINMPQEFGELVAYVIENTPGADDIVFAIHCHNDLGVATANTISGICAGARQVEVTINGIGERSGNAPLEEVVMALKCRGESLMDGVYTKIDSRQIMATSKMVQEHTGMYVQPHKPIVGDNCFVHESGIHQDGILKNRSTYEILSPEDVGIVKSENSGIVLGKLSGRHAVKDRLKELGYEISDEKFNDIFSRYRELTKDKKRITDADLKALVVNGAEISSEKLNSKGINDLMSSPQISAVV
# B9: isopropylmalate isomerase (IPMI) small subunit LeuD2 (protein, UniProt Q9LYT7 1-253)
# chain: MATSQQFLNPTLFKSLASSNKNSCTLCPSPFLQLKSASTIFNYKPLTSSSATIITRVAASSSDSGESITRETFHGLCFVLKDNIDTDQIIPAEYGTLIPSIPEDREKLGSFALNGLPKFYNERFVVPGEMKSKYSVIIGGDNFGCGSSREHAPVCLGAAGAKAVVAESYARIFFRNCVATGEIFPLESEVRICDECKTGDVVTIEHKEDGSSLLINHTTRKEYKLKPLGDAGPVIDAGGIFAYARKAGMIPSA
# B10: isopropylmalate isomerase (IPMI) small subunit LeuD3 (protein, UniProt Q9ZW85 1-251)
# chain: MAASLQSANPTLSRTLASPNKPSSFATFRSPFLRFNSTSVASNFKPLVSREASSSFVTRSAAEPQERKTFHGLCYVVGDNIDTDQIIPAEFLTLVPSNPEEYEKLGSYALVGLPASYKERFVQPGEMKTKYSIIIGGENFGCGSSREHAPVCLGAAGAKAVVAQSYARIFFRNSVATGEVYPLDSEVRVCDECTTGDVATVELREGDSILINHTTGKEYKLKPIGDAGPVIDAGGIFAYARKAGMIPSAAA
# B11: methylthioalkylmalate synthase 1 (MAM1) (enzyme, UniProt Q9FG67 1-506)
# chain: MASSLLTSSVMIPTTGSTVVGRSVLPFQSSLHSLRLTHSYKNPALFISCCSSVSKNAATSSTDLKPVVERWPEYIPNKLPDGNYVRVFDTTLRDGEQSPGGSLTPPQKLEIARQLAKLRVDIMEVGFPGSSEEELETIKTIAKTVGNEVDEETGYVPVICAIARCKHRDIEATWEALKYAKRPRILVFTSTSDIHMKYKLKKTQEEVIEMAVSSIRFAKSLGFNDIQFGCEDGGRSDKDFLCKILGEAIKAGVTVVTIGDTVGINMPHEYGELVTYLKANTPGIDDVVVAVHCHNDLGLATANSIAGIRAGARQVEVTINGIGERSGNASLEEVVMALKCRGAYVINGVYTKIDTRQIMATSKMVQEYTGLYVQAHKPIVGANCFVHESGIHQDGILKNRSTYEILSPEDIGIVKSQNSGLVLGKLSGRHAVKDRLKELGYELDDEKLNAVFSLFRDLTKNKKRITDADLKALVTSSDEISLEKLNGANGLKSNGYIPVPQVSSNV
# Target: LeuC:NmVen210 (Arabidopsis thaliana)
# Assay: split reporter; BiFC, pDOE-mVenus210 system; Nicotiana benthamiana leaves agroinfiltrated at OD 0.4 and imaged at day 3
row,Binder,binding
1,B1,binds
2,B2,binds
3,B3,binds weakly

# Target: isopropylmalate isomerase (IPMI) large subunit LeuC (Arabidopsis thaliana)
# Assay: two-hybrid; pair-wise; GAL4 DNA-binding domain (pPC97) and GAL4 activation domain (pPC86) fusions co-transformed into yeast strain CG1945; growth on SD/-Trp-Leu-His with 1 mM 3AT
row,Binder,binding
1,B4,binds
2,B5,binds
3,B6,binds weakly
4,B7,no binding
5,B8,no binding
6,B9,no binding
7,B10,no binding
8,B11,no binding
